Some entries share one result that the patent states for a list of compounds.
Columns and labels:
[1] = test system: Diamondback moth (Plutella xylostella); experiment: Insecticidal test on diamondback moth (dip treatment of Chinese cabbage seedlings with laid eggs); format: in vivo; conditions: dip about 30 seconds, 6 days after treatment, 25° C.
Excerpt: Insecticidal Test on Diamondback moth (Plutella xylostella)
Adults of diamondback moth were released onto Chinese cabbage seedlings and allowed to lay eggs thereon. At 2 days after the release of the adults, the Chinese cabbage seedlings with laid eggs were dipped for about 30 seconds in agrochemical dispersions diluted to 50 ppm or 500 ppm, each of which contained a different compound represented by the general formula (1) of the present invention as an active ingredient. After air-dried, the seedlings were kept in a thermostatic chamber at 25° C. At 6 days after the dip treatment, the number of surviving larvae per plot was counted, the corrected mortality rate was calculated according to the formula shown below, and the insecticidal efficacy was evaluated according to the criteria shown below. This test was conducted in triplicate using 10 adults of diamondback moth per plot.
• A: the mortality rate is 100%. • B: the mortality rate is 90 to 99%. • C: the mortality rate is 80 to 89%. • D: the mortality rate is 50 to 79%. • E: the mortality rate is 0 to 49%.

[2] = test system: Small Brown Planthopper (Laodelphax striatellus); experiment: Insecticidal test on small brown planthopper (dipped rice seedlings, 3rd-instar larvae); format: in vivo; conditions: rice seedlings dipped 30 seconds, 8 days after inoculation

| SMILES | insecticidal efficacy (corrected mortality rate) against diamondback moth ([1]; 50 ppm) | insecticidal efficacy (corrected mortality rate) against diamondback moth ([1]; 500 ppm) | insecticidal efficacy (corrected mortality rate) against small brown planthopper ([2]; 50 ppm) | insecticidal efficacy (corrected mortality rate) against small brown planthopper ([2]; 500 ppm) |
| --- | --- | --- | --- | --- |
| N#Cc1cc(NC(=O)C2=C(O)CN(c3ccc(Br)nc3)NC2=O)ccc1F [1-264] | A (the mortality rate is 100%) | A (the mortality rate is 100%) |  |  |
| COC(=O)N1C(=O)C(C(=O)Nc2ccc(F)c(C)c2)=C(O)CN1c1ccc(Cl)nc1 [3-156] | A (the mortality rate is 100%) | A (the mortality rate is 100%) | A (the mortality rate is 100%) | A (the mortality rate is 100%) |
| Cn1ccc(NC(=O)C2=C(O)CN(c3ccc(C#N)cc3)NC2=O)n1 [1-275] |  | A (the mortality rate is 100%) | A (the mortality rate is 100%) | A (the mortality rate is 100%) |
| O=C(Nc1cncc(F)c1)C1=C(O)CN(c2ccc(Br)nc2)NC1=O [1-314] |  | A (the mortality rate is 100%) | A (the mortality rate is 100%) | A (the mortality rate is 100%) |
| Cc1cc(NC(=O)C2=C(O)CN(c3ccc(Br)nc3)NC2=O)no1 [1-294] |  | A (the mortality rate is 100%) |  |  |
| Cc1cc(NC(=O)C2=C(O)CN(c3ccc(Cl)cc3)NC2=O)ccc1F [1-26] | A (the mortality rate is 100%) | A (the mortality rate is 100%) |  | A (the mortality rate is 100%) |
| Cc1cc(NC(=O)C2=C(O)CN(c3ccc(C4CC4)cc3)NC2=O)ccc1F [1-25] |  | A (the mortality rate is 100%) |  |  |
| CCCCNC(=O)C1=C(O)CN(c2ccc(C(F)(F)F)nc2)N(C(=O)OCC(C)C)C1=O [3-276] |  | A (the mortality rate is 100%) |  | A (the mortality rate is 100%) |
| CCCNC(=O)C1=C(O)CN(c2ccc(C(F)(F)F)nc2)N(C(=O)OCC(C)C)C1=O [3-277] |  | A (the mortality rate is 100%) |  | A (the mortality rate is 100%) |
| Cc1cc(NC(=O)C2=C(O)CN(c3ccc(Br)nc3)NC2=O)nn1C [1-319] |  | A (the mortality rate is 100%) | A (the mortality rate is 100%) | A (the mortality rate is 100%) |
| O=C(Nc1ccc(Cl)cn1)C1=C(O)CN(c2ccc(C3CC3)cc2)NC1=O [1-32] |  | A (the mortality rate is 100%) |  |  |
| O=C(Nc1cnccn1)C1=C(O)CN(c2ccc(Cl)nc2)NC1=O [1-137] |  | A (the mortality rate is 100%) |  | A (the mortality rate is 100%) |
| CC(C)(C)c1ccc(NC(=O)C2=C(O)CN(c3ccc(C(F)(F)F)nc3)NC2=O)cc1 [1-116] |  | A (the mortality rate is 100%) |  | A (the mortality rate is 100%) |
| COCCNC(=O)C1=C(O)CN(c2ccc(Br)nc2)NC1=O [1-195] |  | A (the mortality rate is 100%) |  | A (the mortality rate is 100%) |
| COC(=O)N1C(=O)C(C(=O)Nc2cccc3nsnc23)=C(O)CN1c1cnc(C#N)c(Cl)c1 [3-488] |  | A (the mortality rate is 100%) |  |  |
| COc1cc(N2CC(O)=C(C(=O)Nc3ccc(F)cc3)C(=O)N2)cnc1C#N [1-104] |  | A (the mortality rate is 100%) |  |  |
| O=C(Nc1nccs1)C1=C(O)CN(c2ccc(Cl)nc2)NC1=O [1-140] |  | A (the mortality rate is 100%) |  |  |

| SMILES | insecticidal efficacy (corrected mortality rate) against diamondback moth ([1]; 50 ppm) | insecticidal efficacy (corrected mortality rate) against diamondback moth ([1]; 500 ppm) | insecticidal efficacy (corrected mortality rate) against small brown planthopper ([2]; 50 ppm) | insecticidal efficacy (corrected mortality rate) against small brown planthopper ([2]; 500 ppm) |
| --- | --- | --- | --- | --- |
| COC(=O)N1C(=O)C(C(=O)Nc2ccc(F)cc2)=C(O)CN1c1ccc2ccccc2n1 [3-245] | A (the mortality rate is 100%) | A (the mortality rate is 100%) |  |  |
| N#Cc1ncc(N2CC(O)=C(C(=O)Nc3cccc4nsnc34)C(=O)N2)cc1Cl [1-257] |  | A (the mortality rate is 100%) |  |  |
| CSc1cccc(NC(=O)C2=C(O)CN(c3cnc(C#N)c(Cl)c3)NC2=O)c1 [1-256] | A (the mortality rate is 100%) | A (the mortality rate is 100%) |  |  |
| COc1cc(N2CC(O)=C(C(=O)Nc3cccc(C#N)c3)C(=O)N2)ccc1C#N [1-259] |  | A (the mortality rate is 100%) |  |  |
| COC(=O)N1C(=O)C(C(=S)Nc2cccc(F)c2)=C(O)CN1c1ccc(C#N)cc1 [4-123] |  | A (the mortality rate is 100%) |  |  |
| CCc1cccc(NC(=O)C2=C(O)CN(c3ccc(Br)nc3)NC2=O)n1 [1-377] | A (the mortality rate is 100%) | A (the mortality rate is 100%) |  |  |
| O=C(Nc1ccc(F)cc1)C1=C(O)CN(c2cnc3ccccc3n2)NC1=O [1-155] | A (the mortality rate is 100%) | A (the mortality rate is 100%) |  |  |
| N#Cc1ccc(NC(=O)C2=C(O)CN(c3ccc(Cl)nn3)NC2=O)nc1 [1-190] |  | A (the mortality rate is 100%) |  |  |
| COc1cc(N2CC(O)=C(C(=O)Nc3ccn(C)n3)C(=O)N2)ccc1C#N [1-273] |  | A (the mortality rate is 100%) |  |  |
| COc1ccc(NC(=O)C2=C(O)CN(c3cnc(C#N)c(Cl)c3)NC2=O)cc1OC [1-255] |  | A (the mortality rate is 100%) |  |  |
| O=C(Nc1ccc(F)nc1)C1=C(O)CN(c2ccc(C3CC3)cc2)NC1=O [1-8] |  | A (the mortality rate is 100%) |  |  |
| COc1cccc(NC(=O)C2=C(O)CN(c3ccc(C#N)c(OC)c3)NC2=O)n1 [1-258] | A (the mortality rate is 100%) | A (the mortality rate is 100%) |  |  |
| COC(=O)N1C(=O)C(C(=O)Nc2cccc(F)n2)=C(O)CN1c1ccc(Br)nc1 [3-628] |  | A (the mortality rate is 100%) |  |  |
| CCc1cccc(NC(=O)C2=C(O)CN(c3ccc(Br)nc3)N(C(=O)OC)C2=O)n1 [3-622] |  | A (the mortality rate is 100%) |  |  |
| O=C(Nc1ccc(Cl)nc1)C1=C(O)CN(c2ccc(C3CC3)cc2)NC1=O [1-3] |  | A (the mortality rate is 100%) |  |  |
| COC(=O)N1C(=O)C(C(=O)Nc2cccc(SC)c2)=C(O)CN1c1cnc(C#N)c(Cl)c1 [3-486] |  | A (the mortality rate is 100%) |  |  |

— patent publication US20250074896A1, “ARYLTETRAHYDROPYRIDAZINE DERIVATIVE OR SALT THEREOF AND INSECTICIDAL AGENT CONTAINING THE COMPOUND AND METHOD FOR USING SAME” (NIHON NOHYAKU CO., LTD., priority 2021, published 2025)
